{"source": "the supplement of paper PMC8728848", "test_in_all_cases": "glycan array binding signal (z-score within array); higher = stronger binding", "details_in_all_cases": "glycan notation: IUPAC condensed, linker removed", "key": {"[1]": {"target": "Neu5Ac(a2-6)Gal(b1-4)GlcNAc(b1-6)[Gal(b1-3)GlcNAc(b1-3)]Gal(b1-4)Glc", "method_in_brief": "(§1)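 Glycan array binding is given as a within-array Z-score, which can be read as non-binding when negative. The arrays, 3228 of them, came from the Consortium for Functional Glycomics database and were retained only where the protein sequence was available. Z-scores were averaged across arrays of the same protein sequence at different concentrations or buffers and across linkers.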"}, "[2]": {"target": "Neu5Ac(a2-6)Gal(b1-4)GlcNAc(b1-6)[Gal(b1-3)]GalNAc", "method_in_brief": "as §1"}, "[3]": {"target": "Neu5Ac(a2-6)Gal(b1-4)GlcNAc6S", "method_in_brief": "as §1"}, "[4]": {"target": "Neu5Ac(a2-6)GalNAc", "method_in_brief": "as §1"}, "[5]": {"target": "Neu5Ac(a2-6)GalNAc(b1-4)GlcNAc", "method_in_brief": "as §1"}, "[6]": {"target": "Neu5Ac(a2-6)GalNAc(b1-4)GlcNAc6S", "method_in_brief": "as §1"}, "[7]": {"target": "Neu5Ac(a2-6)GlcNAc(b1-4)GlcNAc", "method_in_brief": "as §1"}, "[8]": {"target": "Neu5Ac(a2-6)GlcNAc(b1-4)GlcNAc(b1-4)GlcNAc", "method_in_brief": "as §1"}, "[9]": {"target": "Neu5Ac(a2-8)Neu5Ac", "method_in_brief": "as §1"}, "[10]": {"target": "Neu5Ac(a2-8)Neu5Ac(a2-3)Gal(b1-3)GalNAc(b1-4)[Neu5Ac(a2-3)]Gal(b1-4)Glc", "method_in_brief": "as §1"}, "[11]": {"target": "Neu5Ac(a2-8)Neu5Ac(a2-3)Gal(b1-3)GalNAc(b1-4)[Neu5Ac(a2-8)Neu5Ac(a2-3)]Gal(b1-4)Glc", "method_in_brief": "as §1"}, "[12]": {"target": "Neu5Ac(a2-8)Neu5Ac(a2-3)Gal(b1-4)Glc", "method_in_brief": "as §1"}, "[13]": {"target": "Neu5Ac(a2-8)Neu5Ac(a2-3)Gal(b1-4)GlcNAc", "method_in_brief": "as §1"}, "[14]": {"target": "Neu5Ac(a2-8)Neu5Ac(a2-3)[Gal(b1-3)GalNAc(b1-4)]Gal(b1-4)Glc", "method_in_brief": "as §1"}, "[15]": {"target": "Neu5Ac(a2-8)Neu5Ac(a2-3)[GalNAc(b1-4)]Gal(b1-4)Glc", "method_in_brief": "as §1"}, "[16]": {"target": "Neu5Ac(a2-8)Neu5Ac(a2-8)Neu5Ac", "method_in_brief": "as §1"}, "[17]": {"target": "Neu5Ac(a2-8)Neu5Ac(a2-8)Neu5Ac(a2-3)Gal(b1-4)Glc", "method_in_brief": "as §1"}, "[18]": {"target": "Neu5Ac(a2-8)Neu5Ac(a2-8)Neu5Ac(a2-3)[Gal(b1-3)GalNAc(b1-4)]Gal(b1-4)Glc", "method_in_brief": "as §1"}, "[19]": {"target": "Neu5Ac(a2-8)Neu5Ac(a2-8)Neu5Ac(a2-3)[GalNAc(b1-4)]Gal(b1-4)Glc", "method_in_brief": "as §1"}, "[20]": {"target": "Neu5Ac(a2-8)Neu5Ac(a2-8)Neu5Ac(a2-8)Neu5Ac(a2-3)[GalNAc(b1-4)]Gal(b1-4)Glc", "method_in_brief": "as §1"}, "[21]": {"target": "Neu5Ac(a2-8)Neu5Gc(a2-3)Gal(b1-4)GlcNAc", "method_in_brief": "as §1"}, "[22]": {"target": "Neu5Ac(b2-6)Gal(b1-4)GlcNAc", "method_in_brief": "as §1"}, "[23]": {"target": "Neu5Ac(b2-6)GalNAc", "method_in_brief": "as §1"}, "[24]": {"target": "Neu5Ac9Ac(a2-3)Gal(b1-4)GlcNAc", "method_in_brief": "as §1"}, "[25]": {"target": "Neu5Ac9Ac(a2-6)Gal(b1-4)GlcNAc", "method_in_brief": "as §1"}, "[26]": {"target": "Neu5Gc(a2-3)Gal(b1-3)GlcNAc", "method_in_brief": "as §1"}, "[27]": {"target": "Neu5Gc(a2-3)Gal(b1-3)[Fuc(a1-4)]GlcNAc", "method_in_brief": "as §1"}, "[28]": {"target": "Neu5Gc(a2-3)Gal(b1-4)Glc", "method_in_brief": "as §1"}, "[29]": {"target": "Neu5Gc(a2-3)Gal(b1-4)GlcNAc", "method_in_brief": "as §1"}, "[30]": {"target": "Neu5Gc(a2-3)Gal(b1-4)GlcNAc(b1-3)Gal(b1-4)GlcNAc(b1-2)Man(a1-3)[Neu5Gc(a2-3)Gal(b1-4)GlcNAc(b1-3)Gal(b1-4)GlcNAc(b1-2)Man(a1-6)]Man(b1-4)GlcNAc(b1-4)GlcNAc", "method_in_brief": "as §1"}, "[31]": {"target": "Neu5Gc(a2-3)Gal(b1-4)[Fuc(a1-3)]GlcNAc", "method_in_brief": "as §1"}, "[32]": {"target": "Neu5Gc(a2-6)Gal(b1-4)GlcNAc", "method_in_brief": "as §1"}, "[33]": {"target": "Neu5Gc(a2-6)GalNAc", "method_in_brief": "as §1"}, "[34]": {"target": "Neu5Gc(a2-8)Neu5Ac(a2-3)Gal(b1-4)GlcNAc", "method_in_brief": "as §1"}, "[35]": {"target": "Neu5Gc(a2-8)Neu5Gc(a2-3)Gal(b1-4)GlcNAc", "method_in_brief": "as §1"}, "[36]": {"target": "Neu5Gc(a2-8)Neu5Gc(a2-3)Gal(b1-4)GlcNAc(b1-3)Gal(b1-4)GlcNAc", "method_in_brief": "as §1"}, "[37]": {"target": "Neu5Gc(a2-8)Neu5Gc(a2-6)Gal(b1-4)GlcNAc", "method_in_brief": "as §1"}, "[38]": {"target": "Neu5Gc(b2-6)Gal(b1-4)GlcNAc", "method_in_brief": "as §1"}}, "note": "The list shows a part of the results.", "data": [{"binder": "Pbx2CASH domain (Cryptococcus neoformans) (protein) GIPGPNRLYRLSGPIIFTAADQEIATYGYPTGSERAVLRVEGRNTATAIQGDCRRCARVSVKNLVVDGNRKKLGRMRDFQLATGLVVLGGNEGQSIQNSWIKNPRGFTAIHIREGDKLQCSGARVEKNEIGPVGEEYDPEKDGDDPEMSPLGRPLADGVSIACRDSFIRDNTFRDNTDAAIVVYCSPGTLIHA", "values": [{"measurement": "glycan array binding signal (z-score)", "setting": "[1]", "value": -0.698}, {"measurement": "glycan array binding signal (z-score)", "setting": "[2]", "value": 0.333}, {"measurement": "glycan array binding signal (z-score)", "setting": "[3]", "value": 2.1}, {"measurement": "glycan array binding signal (z-score)", "setting": "[4]", "value": -0.729}, {"measurement": "glycan array binding signal (z-score)", "setting": "[5]", "value": -0.343}, {"measurement": "glycan array binding signal (z-score)", "setting": "[6]", "value": -0.471}, {"measurement": "glycan array binding signal (z-score)", "setting": "[7]", "value": -0.404}, {"measurement": "glycan array binding signal (z-score)", "setting": "[8]", "value": -0.208}, {"measurement": "glycan array binding signal (z-score)", "setting": "[9]", "value": -0.046}, {"measurement": "glycan array binding signal (z-score)", "setting": "[10]", "value": 0.156}, {"measurement": "glycan array binding signal (z-score)", "setting": "[11]", "value": -0.522}, {"measurement": "glycan array binding signal (z-score)", "setting": "[12]", "value": -0.837}, {"measurement": "glycan array binding signal (z-score)", "setting": "[13]", "value": -0.683}, {"measurement": "glycan array binding signal (z-score)", "setting": "[14]", "value": 0.336}, {"measurement": "glycan array binding signal (z-score)", "setting": "[15]", "value": 1.64}, {"measurement": "glycan array binding signal (z-score)", "setting": "[16]", "value": 0.505}, {"measurement": "glycan array binding signal (z-score)", "setting": "[17]", "value": 0.223}, {"measurement": "glycan array binding signal (z-score)", "setting": "[18]", "value": -0.408}, {"measurement": "glycan array binding signal (z-score)", "setting": "[19]", "value": 3.58}, {"measurement": "glycan array binding signal (z-score)", "setting": "[20]", "value": 0.464}, {"measurement": "glycan array binding signal (z-score)", "setting": "[21]", "value": -0.756}, {"measurement": "glycan array binding signal (z-score)", "setting": "[22]", "value": -0.444}, {"measurement": "glycan array binding signal (z-score)", "setting": "[23]", "value": -0.435}, {"measurement": "glycan array binding signal (z-score)", "setting": "[24]", "value": -1.03}, {"measurement": "glycan array binding signal (z-score)", "setting": "[25]", "value": -0.882}, {"measurement": "glycan array binding signal (z-score)", "setting": "[26]", "value": -0.376}, {"measurement": "glycan array binding signal (z-score)", "setting": "[27]", "value": -0.403}, {"measurement": "glycan array binding signal (z-score)", "setting": "[28]", "value": -0.382}, {"measurement": "glycan array binding signal (z-score)", "setting": "[29]", "value": -0.685}, {"measurement": "glycan array binding signal (z-score)", "setting": "[30]", "value": -0.28}, {"measurement": "glycan array binding signal (z-score)", "setting": "[31]", "value": -0.626}, {"measurement": "glycan array binding signal (z-score)", "setting": "[32]", "value": -0.551}, {"measurement": "glycan array binding signal (z-score)", "setting": "[33]", "value": -0.748}, {"measurement": "glycan array binding signal (z-score)", "setting": "[34]", "value": -0.526}, {"measurement": "glycan array binding signal (z-score)", "setting": "[35]", "value": -0.377}, {"measurement": "glycan array binding signal (z-score)", "setting": "[36]", "value": -0.296}, {"measurement": "glycan array binding signal (z-score)", "setting": "[37]", "value": -0.047}, {"measurement": "glycan array binding signal (z-score)", "setting": "[38]", "value": 0.198}]}]}
